Patent publication US10428151B2, “Treatment of hematologic malignancies with an anti-CXCR4 antibody” (BRISTOL-MYERS SQUIBB COMPANY, priority 2011, dated 2019)
At least one compound was matched to its structure with a doubt left.

System: Nomo-1
Experiment: Nomo-1 AML xenograft
Assay type: in vivo, SCID mice
Conditions: 20, 60 or 90 mg/kg/dose
From the text: In the Nomo-1 model (7.5 million cells implanted subcutaneously as in Example 14).

## Nc1ccn([C@@H]2O[C@H](CO)[C@@H](O)[C@@H]2O)c(=O)n1 [cytarabine, arabinofuranosyl cytidine, reference compound]
  tumor growth inhibition: did not inhibit tumor growth
